Results from patent US20050063973A1 (URIFER, published 2005).
Results are given in words; binding and its absence hold for the method and conditions named. Binding seen in cells or lysates may run through a third protein. Some results given as binding are weak or reduced against the parent protein; the word gives no strength.

Sequences of proteins named here, by UniProt entry; tags and fusion partners are left off.
UniProt P70451: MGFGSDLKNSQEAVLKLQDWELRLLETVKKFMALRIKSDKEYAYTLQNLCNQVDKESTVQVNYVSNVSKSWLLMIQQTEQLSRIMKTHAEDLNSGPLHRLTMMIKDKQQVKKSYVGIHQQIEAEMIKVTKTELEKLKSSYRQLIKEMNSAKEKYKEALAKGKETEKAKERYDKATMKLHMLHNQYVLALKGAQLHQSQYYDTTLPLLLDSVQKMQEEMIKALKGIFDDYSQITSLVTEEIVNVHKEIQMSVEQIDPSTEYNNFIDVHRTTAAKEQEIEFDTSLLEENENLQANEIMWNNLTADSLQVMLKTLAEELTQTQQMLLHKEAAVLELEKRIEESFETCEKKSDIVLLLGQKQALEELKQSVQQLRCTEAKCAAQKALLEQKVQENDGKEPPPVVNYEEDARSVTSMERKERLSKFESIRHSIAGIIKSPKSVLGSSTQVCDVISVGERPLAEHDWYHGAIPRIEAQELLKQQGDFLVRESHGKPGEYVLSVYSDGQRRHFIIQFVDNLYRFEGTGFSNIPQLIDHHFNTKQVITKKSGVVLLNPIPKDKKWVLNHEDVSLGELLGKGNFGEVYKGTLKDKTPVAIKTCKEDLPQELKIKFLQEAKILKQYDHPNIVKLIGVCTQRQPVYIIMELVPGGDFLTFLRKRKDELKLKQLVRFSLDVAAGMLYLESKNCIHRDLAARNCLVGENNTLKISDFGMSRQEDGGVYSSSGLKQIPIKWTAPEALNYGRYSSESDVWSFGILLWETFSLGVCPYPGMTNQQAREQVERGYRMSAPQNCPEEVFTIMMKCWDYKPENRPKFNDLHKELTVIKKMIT

Tests used:
[1] = biological target: Fer tyrosine kinase (endogenous protein of C2C12 cells) (UniProt P70451); assay: co-immunoprecipitation
[2] = biological target: Fer tyrosine kinase (endogenous protein of C2C12 cells) (UniProt P70451); assay: co-immunoprecipitation from C2C12 extracts
[3] = biological target: Fer tyrosine kinase (endogenous protein of C2C12 cells) (UniProt P70451); assay: co-immunoprecipitation from MG132 treated C2C12 cells
[4] = biological target: Fer tyrosine kinase (endogenous protein of C2C12 cells) (UniProt P70451); assay: co-immunoprecipitation with αTMF/ARA160, Western blot with αFER (FIG. 5)
[5] = biological target: Fer tyrosine kinase (endogenous protein of C2C12 cells) (UniProt P70451); assay: co-immunoprecipitation with αTMF/ARA160 from C2C12 extracts, Western blot with αFer

Measured: binding

B1: TMF/ARA160 (endogenous protein of C2C12, NIH3T3 and T127 cells) (protein, UniProt B9EKI3 1-1091, looked up)
chain: MSWFNASQLSSFAKQALSQAQKSIDRVLDIQEEEPSAWAEAIPYGEPGISPPVSGGWDTSTWGLNSTSSEPQSPPTASQAITKPVRRTVVDESENFFSAFLSPSDAHTIQKSPVVSKPPSKSQRPEEEVKSSLQESSSPGQSRVSETAEVRDSVCVSGETSAVGTPSPVPEDKHEETAGEESEVKVPTVRLKASENVVNVNTTEDVSTTSTQSLTAETKDMALEPKEQKHEDRQSNTPSPPVSSFSSGTSTTSDIEVLDHESVISESSASSRQETSDAKSSLHLMQTSFQLLSASACPEYSRLDDFQKLNESCCSSDAFERIDSFSVQSLDSRSVSEINSDDELPGKGYALVPIIVSPSTPKTKVVESTEENAEEEEGNETLVAPSEEAELEESGRSATPVNCDQPDILASPTAGSGGHSASGPATEQCEAVENQPKAPPEKEDVCKTVEFLNEKLEKRETQLLSLSKEKALLEEAYDNLKDEMFRVKEESSSISSLKDEFTQRIAEAEKKVQLACKERDAAKKEMKTIKEELATRLNSSQTADLLKEKDEQIQGLMEEGEKLSKQQLHNSNIIKKLRAKDKDNENVIAKLNRKAKELEEELQHLRQVLDGKEEVEKQHRENIKKLNSVVERQEKDLGRLQVDMDELEEKSRSTQAALDSAYRELTDLHKANAAKDSEVQEAALRREMKAKEELSGALEKAQEEARQQQEALVLQVGDLRLALQRAEQAAARKEDYLRHEISELQQRLQEAENRNQELSQSVSSTARPLLRQIENLQATLGSQTSSWETLEKSLSDRLGESQTLLAAAVERERAATEELLANKIQMSSVESQNTLLRQENSRLQAQLESEKNKLRKLEDENSRYQVELENLKDEYVRTLEESRKEKTLLSSQLEMERMKVEQERKKTIFTQEALKEKDHKLFSVCSTPTMSRSSSISGVDAAGLQASFLSQDESHDHSFGPMSTSASGSNLYEAVRMGAGSSIIENLQSQLKLREGEISHLQLEISNLEKTRSIMSEELVKLTNQNDELEEKVKEIPKLRVQLRDLDQRYNTILQMYGEKAEEAEELRLDLEDVKNMYKTQIDELLRQRLS
binds: all assays above
